Assay results taken from PubChem BioAssay AID1671190 (National Center for Advancing Translational Sciences (NCATS), 2021).
Where “and” joins values, the source holds several entries; their conditions need not be identical. Identical values can stand only once. The whole screen tested about 580,000 compounds, of which about 6,100 (1.1%) were called active. This list was built around the results that the source calls inconclusive (neither active nor inactive); the mix of calls is not that of the screen. The call rests on the fitted dose curve; in most records, active means well fitted inhibition curve with a large enough effect; inconclusive means small, poorly fitted or top-dose-only effect, or another doubt; inactive means no such curve, though single readings can be large or run the other way. A potency beside an inconclusive call is a rough fit, not a confirmed value.
On the % scale 0 is the no-effect control and ±100 the full control effect; potency means the concentration at half of the fitted maximal effect.

Amino acid sequences for entries named in this document (tags omitted). A change or cut given only in a name is not applied to a line headed by its entry.
UniProt P18054: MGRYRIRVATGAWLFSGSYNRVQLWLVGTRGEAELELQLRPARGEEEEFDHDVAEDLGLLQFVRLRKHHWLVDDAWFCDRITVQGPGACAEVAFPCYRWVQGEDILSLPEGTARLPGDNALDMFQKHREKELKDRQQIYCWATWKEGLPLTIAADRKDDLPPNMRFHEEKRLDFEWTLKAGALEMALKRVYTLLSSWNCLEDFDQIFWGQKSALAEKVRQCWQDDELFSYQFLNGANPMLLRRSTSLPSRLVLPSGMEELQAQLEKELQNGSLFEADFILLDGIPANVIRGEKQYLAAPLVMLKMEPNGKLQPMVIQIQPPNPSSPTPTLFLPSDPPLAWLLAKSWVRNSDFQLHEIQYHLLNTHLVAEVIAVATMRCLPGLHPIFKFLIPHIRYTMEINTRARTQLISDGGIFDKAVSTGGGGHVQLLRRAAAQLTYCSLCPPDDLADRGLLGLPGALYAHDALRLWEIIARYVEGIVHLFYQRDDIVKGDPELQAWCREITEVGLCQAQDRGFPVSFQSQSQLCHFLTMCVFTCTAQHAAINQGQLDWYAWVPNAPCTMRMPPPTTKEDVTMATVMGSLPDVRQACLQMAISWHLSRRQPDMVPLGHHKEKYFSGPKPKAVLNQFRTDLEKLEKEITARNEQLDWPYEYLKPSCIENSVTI

Each compound was assayed against Polyunsaturated fatty acid lipoxygenase ALOX12 (Homo sapiens) (UniProt P18054) (assay: Primary qHTS assay for inhibitors of human arachidonate 12S-lipoxygenase (ALOX12): Round 2). Details: purified 12hLO, xylenol orange hydroperoxide absorbance; activity change, negative = inhibition: at 108 µM (top of the series) unless noted.
How it was run: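 Purified human 12hLO at 150 nM in 25 mM Hepes, 0.01% Triton X-100, pH 7.0, preincubated 15 min at room temperature with compound. Reaction started with 40 uM arachidonic acid, 30 min at room temperature. Hydroperoxide measured by Fe-xylenol orange, 573/405 nm absorbance ratio.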
With `Cc1ccc2c(c1)COc1c3ccc(C(=O)N4CCOCC4)cc3nn1-2` the “activity change, negative = inhibition” value was inactive: 0.468%.
In the case of `CC1=CC(=O)C2(CCCCC2)NC1`, the Potency was inconclusive: 56.2 µM [inhibitor, single point].
For `COCCNC(=O)/C(C#N)=C/c1ccc(N2CCOCC2)o1`, the Potency was inconclusive: 89.1 µM [inhibitor, partial curve, poor fit].
For `CC(=O)c1ccc(NCC(=O)N2N=C(c3ccc(C)o3)CC2c2cccs2)cc1` (centres undefined), the Potency was inconclusive: 44.7 µM [inhibitor, partial curve, poor fit].
In the case of `O=c1oc2c(-c3cccc(F)c3)cc(O)cc2s1`, the Potency was active: 35.5 µM.
`CN1CCN(c2ccc3ncc(Nc4ccccc4-c4ccccc4)n3n2)CC1` was tested, and the Potency was inconclusive: 44.7 µM [inhibitor, full curve].
In the case of `C#CC1CN(Cc2ccccc2)CC(C#C)N1C` (centres undefined), the Potency was inconclusive: 31.6 µM [inhibitor, partial curve, poor fit].
In the case of `Cc1sc(NC(=O)C(c2ccccc2)c2ccccc2)c(C#N)c1C`, the Potency was inconclusive: 39.8 µM [inhibitor, partial curve, poor fit].
In the case of `Cc1c(CN2CCCC(C(=O)Nc3cccc(-c4cc5ccccc5[nH]4)c3)C2)cnn1C` (centres undefined), the Potency was inconclusive: 35.5 µM [inhibitor, partial curve].
For `Oc1ccc2ccccc2c1/C=N/Nc1nnc(-c2ncc[nH]2)c2ccccc12`, the Potency was inconclusive: 89.1 µM [inhibitor, partial curve, poor fit].
For `CCOC(=O)c1c(C)nc2sc3c(=O)n(-c4ccc(C(C)=O)cc4)nnc3c2c1-c1ccc(OC)cc1`, the “activity change, negative = inhibition” value was inactive: 16.8%.
With `Cc1ccc(SCCOc2ccccc2C=O)cc1` the “activity change, negative = inhibition” value was inactive: -42.1%.
`COc1ccccc1OCC(O)CN1CCN(C(=O)c2ccccc2)CC1` (centres undefined) was tested, and the Potency was inconclusive: 35.5 µM [inhibitor, single point].
With `O=C1C(=O)N(CCCN2CCOCC2)C(c2ccc(Cl)cc2)/C1=C(/O)c1ccc(F)cc1` (centres undefined) the Potency was inconclusive: 0.631 µM [inhibitor, full curve, poor fit].
With `O=c1n(Cc2ccc(F)c(F)c2)nc(C2CCNCC2)n1Cc1ccccc1` the “activity change, negative = inhibition” value was inactive: 8.8%.
In the case of `Nc1nc(-c2ccccc2)c(-c2ccc([N+](=O)[O-])cc2)s1`, the Potency was inconclusive: 112 µM [inhibitor, single point].
With `COc1ccc(S(=O)(=O)N2CCOC23CCN(S(=O)(=O)c2c(C)cc(C)cc2C)CC3)cc1` the “activity change, negative = inhibition” value was inactive: -13.2%.
`CC(C)(C)C(=O)N1CCC(NC(=O)c2cc3ccccc3oc2=O)CC1` was tested, and the “activity change, negative = inhibition” value was inactive: -10.2%.
In the case of `COc1ccc(NC(=O)CSc2nc3ccccc3nc2Cc2ccc(C)cc2)cc1Cl`, the “activity change, negative = inhibition” value was inactive: -19.7%.
`S=C(Nc1ccc(Nc2ccccc2)cc1)N1CCN(c2ncccn2)CC1` was tested, and the Potency was inconclusive: 141 µM [inhibitor, single point].
In the case of `CCn1cc([N+](=O)[O-])c(C(=O)Nc2nc(-c3ccc(C)cc3)c(C)s2)n1`, the “activity change, negative = inhibition” value was inactive: -22%.
`O=C(NCc1ccccc1S(=O)(=O)N1CCOCC1)c1ccc(Cl)cc1O` was tested, and the Potency was inconclusive: 126 µM [inhibitor, single point].
For `O=C(C1=C(O)C(=O)N(CCN2CCOCC2)C1c1ccc(Br)cc1)c1cc2ccccc2o1` (centres undefined), the Potency was inconclusive: 15.8 µM [inhibitor, full curve, poor fit].
In the case of `CC(NC(=O)Nc1ccc(F)c(Cl)c1)c1ccc(Cl)s1` (centres undefined), the Potency was inconclusive: 31.6 µM [inhibitor, single point].
In the case of `COc1ccc(-c2nc3c4ccccc4ccn3c2CN2CCCCC2)cc1`, the “activity change, negative = inhibition” value was inactive: -6.62%.
For `CCOC(=O)c1ccccc1NS(=O)(=O)c1ccc(C)cc1`, the “activity change, negative = inhibition” value was inactive: -0.553%.
In the case of `Cc1c(-c2ccccn2)c(=O)[nH]n1-c1ccc(F)cc1`, the “activity change, negative = inhibition” value was inactive: 11.9%.
For `N#Cc1c(N2CCN(CC(=O)Nc3ccccc3)CC2)nc(-c2ccco2)c2c1CCC2`, the “activity change, negative = inhibition” value was inactive: -1.38%.
In the case of `CCn1c(SCC(=O)N2CCN(c3ccc(Cl)cc3)CC2)nc2ccccc2c1=O`, the Potency was inconclusive: 56.2 µM [inhibitor, partial curve, poor fit].
`CC(C)NCC1(COc2ccccc2)C[C@@H](O)[C@@H](O)C1` (some centres undefined) was tested, and the “activity change, negative = inhibition” value was inactive: 12.3% [at 176 µM].
In the case of `O=C(CSc1nnnn1Cc1ccccc1)N1CCN(c2ccccc2)CC1`, the Potency was inconclusive: 2.51 µM [inhibitor, full curve, poor fit].
In the case of `O=C1c2ccccc2NC(c2cccc([N+](=O)[O-])c2)N1CCc1ccccc1` (centres undefined), the Potency was inconclusive: 44.7 µM [inhibitor, partial curve, poor fit].
`COc1ccc(Nc2nccc3c2cc(-c2ccc(C(=O)N(C)C)cc2)n3C)c(OC)c1` was tested, and the Potency was inconclusive: 39.8 µM [inhibitor, partial curve].
For `C[C@H](NC(=O)C1CC(=O)N(c2ccc(F)cc2)C1)C(=O)N[C@@H](Cc1ccccc1)C(=O)O` (some centres undefined), the “activity change, negative = inhibition” value was inactive: -32.5%.
In the case of `CCCCNC(=O)c1onc(CSc2ccc(C(C)C)cc2)c1C(=O)O`, the Potency was inconclusive: 100 µM [inhibitor, single point].
`CCSc1nnc(-c2c[nH]c3ccccc23)n1C1CC1` was tested, and the Potency was inconclusive: 44.7 µM [inhibitor, partial curve, poor fit].
In the case of `COc1ccc(O)c(C(=O)/C=C/c2cc3ccccc3o2)c1`, the “activity change, negative = inhibition” value was inactive: 0%.
In the case of `Cc1ccc(S(=O)(=O)NC2CCN(C(=O)Cc3cccc(F)c3)CC2)cc1`, the Potency was inconclusive: 79.4 µM [inhibitor, partial curve, poor fit].
`S=c1sc2c(s1)SCCS2` was tested, and the Potency was inconclusive: 15.8 µM [inhibitor, full curve, poor fit].
With `Brc1ccc(-c2csc(Nc3nc(-c4ccc(Br)cc4)cs3)n2)cc1` the Potency was inconclusive: 7.94 µM [inhibitor, partial curve, poor fit].
For `O=C(NCc1ccccc1)c1cc2sccc2n1Cc1ccc(F)cc1`, the Potency was inconclusive: 22.4 µM [inhibitor, partial curve, poor fit].
In the case of `O=C1/C(=C/c2ccc3ccccc3c2)CCC1C1CCCC1` (centres undefined), the Potency was inconclusive: 10 µM [inhibitor, full curve].
With `CC(C)CCOc1ccc(/C=C2\CCn3c2nc2cc(C(=O)O)ccc2c3=O)cc1` the Potency was inconclusive: 31.6 µM [inhibitor, partial curve, poor fit].
In the case of `O=C(Cc1c[nH]c2ccccc12)N1CCN(S(=O)(=O)c2cccc(Cl)c2Cl)CC1`, the activity change, negative = inhibition was inconclusive: -33.1% [inhibitor].
In the case of `Cc1ccccc1CNC(=O)Cn1ccc2cc(S(=O)(=O)N3CCCCC3)ccc21`, the Potency was inconclusive: 100 µM [inhibitor, partial curve, poor fit].
For `CC(C)=CCCC(C)=CCCC(C)=CCSc1ccccc1C(=O)O`, the “activity change, negative = inhibition” value was inactive: -31.6% [at 57.4 µM].
For `CC1(C)CC(=O)C2=C(C1)Nc1[nH]n(-c3ccccc3)c(=O)c1C2c1ccccc1F` (centres undefined), the “activity change, negative = inhibition” value was inactive: 22.8%.
For `O=C(COC(=O)c1ccc(O)cc1O)NC(=O)c1ccccc1`, the Potency was inconclusive: 89.1 µM [inhibitor, single point].
`OC1(CNCc2cccnc2-n2cncn2)CCNC1` (centres undefined) was tested, and the Potency was inconclusive: 17.8 µM [inhibitor, partial curve, poor fit].
In the case of `NC(=O)c1ccc(COC(=O)C23CC4CC(CC(Cl)(C4)C2)C3)c([N+](=O)[O-])c1`, the Potency was inconclusive: 3.16 µM [inhibitor, single point].
In the case of `COC(=O)N1CCN(c2ccc(OC)cc2)CC1`, the “activity change, negative = inhibition” value was inactive: 13.9%.
For `Cc1cc(C)c(/C=C/C(=O)c2cccnc2)cc1C`, the Potency was inconclusive: 44.7 µM [inhibitor, partial curve, poor fit].
In the case of `CC(NC(=O)c1[nH]c2ccc(Cl)cc2c1Cl)C(N)=O` (centres undefined), the “activity change, negative = inhibition” value was inactive: -28.6%.
For `O=C(NCc1nnc2ccc(-c3ccc(Cl)cc3)nn12)C1(c2ccccc2)CC1`, the “activity change, negative = inhibition” value was inactive: 20.2%.
With `CCOC(=O)N1CCN(Cc2ccccc2Cl)CC1` the Potency was inconclusive: 0.199 µM [inhibitor, full curve, poor fit].
`O=C(c1cc2nc(-c3ccco3)cc(C(F)(F)F)n2n1)N1CCN(c2ccccn2)CC1` was tested, and the “activity change, negative = inhibition” value was inactive: -1.49%.
In the case of `Cc1ccccc1OCCN1C(=O)NC2(CCCc3ccccc32)C1=O` (centres undefined), the Potency was inconclusive: 35.5 µM [inhibitor, single point].
For `COc1cccc(NC(=O)CCCc2nc(C(C)C)no2)c1`, the Potency was inconclusive: 89.1 µM [inhibitor, single point].
In the case of `CN(C)CCCNC(=O)c1ccc(-c2cc(O)c3ncccc3c2)cc1`, the Potency was “inactive”.
`Cc1ccc(CC(=O)NCCc2c[nH]c3ccc(C)cc23)cc1` was tested, and the Potency was inconclusive: 112 µM [inhibitor, single point].
For `COc1ccc(CCNC(=O)C23CC4CC(CC(C4)C2)C3)cc1`, the Potency was inconclusive: 35.5 µM [inhibitor, single point].
For `C[C@@H]1O[C@@H](Oc2c(-c3ccc(O)c(O)c3)oc3cc(O)cc(O)c3c2=O)[C@H](O)[C@H](O)[C@H]1O`, the Potency was “inactive and inconclusive: 20 µM [inhibitor, partial curve, poor fit]”.
With `COc1ccc(NC(=O)c2sc3nc4c(cc3c2N)CCCCCC4)cc1` the Potency was inconclusive: 44.7 µM [inhibitor, partial curve, poor fit].
For `COCCn1c(-n2nc(C)cc2C)nc2c1c(=O)n(CC(=O)OC)c(=O)n2C`, the “activity change, negative = inhibition” value was inactive: 19%.
With `Cc1sc(-n2cnnn2)c(C(=O)Nc2ccc3c(c2)OCCO3)c1C` the “activity change, negative = inhibition” value was inactive: 1.37%.
`COc1cccc(CN2C[C@H]3[C@H](C2)[S+](=O)([O-])C(C)(C)C(=O)N3Cc2ccccc2)c1` was tested, and the Potency was inconclusive: 112 µM [inhibitor, partial curve, poor fit].
`CN(C)C(=S)c1ccc(N(C)C)cc1` was tested, and the Potency was inconclusive: 44.7 µM [inhibitor, partial curve, poor fit].
`COCCNC(=O)CSc1nc2cc3c(cc2c(=O)n1CCCC(=O)NCc1ccc2c(c1)OCO2)OCO3` was tested, and the “activity change, negative = inhibition” value was inactive: -23.9%.
In the case of `CNCCN1C(=O)CC[C@H]2CN(C(=O)c3cnc4c(c3)CCCC4)CC[C@H]21`, the “activity change, negative = inhibition” value was inactive: 22.9%.
